# Data as given in article PMC5996148.
# Values joined by “and” are separate entries in the source; they are usually repeats but may differ in a detail not shown here. Identical values can stand only once. This is one part of the list.
# Tests used:
# Test in all cases: protein microarray (ProtoArray v5.0), streptavidin-Alexa Fluor 647
# Details in all cases: 3'-biotin; 20 mM Tris (pH 7.5), 5 mM MgCl2, 100 mM KCl, 0.1% Tween-20, A/T-rich and random oligonucleotide blockers; temperature not stated; high values mean tight binding
# PDE4D (human) = system: PDE4D (human)
# PDE4DIP (human) = system: PDE4DIP (human)
# PDE7B (human) = system: PDE7B (human)
# PDE8A (human) = system: PDE8A (human)
# PDE9A (human) = system: PDE9A (human)
# PDHA1 (human) = system: PDHA1 (human)
# PDK4 (human) = system: PDK4 (human)
# PDPK1 (human) = system: PDPK1 (human)
# PDRG1 (human) = system: PDRG1 (human)
# PDSS2 (human) = system: PDSS2 (human)
sequence,measurement,setting,value
GGGAGGCTGAGGCAGG [G4-1 biotinylated (PQS2)],binding signal,PDE4D (human),-0.279 z-score
same,binding signal,PDE4DIP (human),-0.321 z-score
same,binding signal,PDE7B (human),-0.26 z-score
same,binding signal,PDE8A (human),-0.312 z-score
same,binding signal,PDE9A (human),-0.298 z-score and -0.286 z-score
same,binding signal,PDHA1 (human),-0.275 z-score
same,binding signal,PDK4 (human),-0.345 z-score
same,binding signal,PDPK1 (human),-0.333 z-score
same,binding signal,PDRG1 (human),-0.316 z-score
same,binding signal,PDSS2 (human),-0.309 z-score
